Data published in the supplement of paper PMC12823440, “Inhibitors supercharge kinase turnover through native proteolytic circuits” (Nature, 2025).
The list shows a part of the results. The calls rarely recur for the same compound in another form.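 Kinases, fused to nanoluciferase, were expressed in K562 cells; luminescence was measured every 4 h from 2 to 18 h as percent of control (DMSO = 100%, positive control = 0%). A time point is decreased if signal falls significantly (2 sigma). Hits were called by the authors by a rule that is not shown; the count of time points alone does not decide it.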

The chains behind the UniProt entries cited, without tags or fusion partners. Where a name states a change or a piece, a line headed by the entry shows the natural chain unless it says otherwise.
UniProt Q15208: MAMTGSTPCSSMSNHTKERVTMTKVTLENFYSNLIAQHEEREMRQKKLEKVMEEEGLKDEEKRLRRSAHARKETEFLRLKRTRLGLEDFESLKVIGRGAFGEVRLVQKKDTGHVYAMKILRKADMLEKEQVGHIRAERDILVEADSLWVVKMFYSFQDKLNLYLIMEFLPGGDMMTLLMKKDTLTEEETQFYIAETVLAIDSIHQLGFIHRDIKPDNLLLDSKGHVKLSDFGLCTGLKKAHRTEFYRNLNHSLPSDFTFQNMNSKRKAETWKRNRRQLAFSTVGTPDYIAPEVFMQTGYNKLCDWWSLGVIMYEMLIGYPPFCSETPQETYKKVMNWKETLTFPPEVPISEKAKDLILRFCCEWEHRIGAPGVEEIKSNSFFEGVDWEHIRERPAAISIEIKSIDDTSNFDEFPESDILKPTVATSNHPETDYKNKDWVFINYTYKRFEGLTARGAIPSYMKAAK
UniProt P29597: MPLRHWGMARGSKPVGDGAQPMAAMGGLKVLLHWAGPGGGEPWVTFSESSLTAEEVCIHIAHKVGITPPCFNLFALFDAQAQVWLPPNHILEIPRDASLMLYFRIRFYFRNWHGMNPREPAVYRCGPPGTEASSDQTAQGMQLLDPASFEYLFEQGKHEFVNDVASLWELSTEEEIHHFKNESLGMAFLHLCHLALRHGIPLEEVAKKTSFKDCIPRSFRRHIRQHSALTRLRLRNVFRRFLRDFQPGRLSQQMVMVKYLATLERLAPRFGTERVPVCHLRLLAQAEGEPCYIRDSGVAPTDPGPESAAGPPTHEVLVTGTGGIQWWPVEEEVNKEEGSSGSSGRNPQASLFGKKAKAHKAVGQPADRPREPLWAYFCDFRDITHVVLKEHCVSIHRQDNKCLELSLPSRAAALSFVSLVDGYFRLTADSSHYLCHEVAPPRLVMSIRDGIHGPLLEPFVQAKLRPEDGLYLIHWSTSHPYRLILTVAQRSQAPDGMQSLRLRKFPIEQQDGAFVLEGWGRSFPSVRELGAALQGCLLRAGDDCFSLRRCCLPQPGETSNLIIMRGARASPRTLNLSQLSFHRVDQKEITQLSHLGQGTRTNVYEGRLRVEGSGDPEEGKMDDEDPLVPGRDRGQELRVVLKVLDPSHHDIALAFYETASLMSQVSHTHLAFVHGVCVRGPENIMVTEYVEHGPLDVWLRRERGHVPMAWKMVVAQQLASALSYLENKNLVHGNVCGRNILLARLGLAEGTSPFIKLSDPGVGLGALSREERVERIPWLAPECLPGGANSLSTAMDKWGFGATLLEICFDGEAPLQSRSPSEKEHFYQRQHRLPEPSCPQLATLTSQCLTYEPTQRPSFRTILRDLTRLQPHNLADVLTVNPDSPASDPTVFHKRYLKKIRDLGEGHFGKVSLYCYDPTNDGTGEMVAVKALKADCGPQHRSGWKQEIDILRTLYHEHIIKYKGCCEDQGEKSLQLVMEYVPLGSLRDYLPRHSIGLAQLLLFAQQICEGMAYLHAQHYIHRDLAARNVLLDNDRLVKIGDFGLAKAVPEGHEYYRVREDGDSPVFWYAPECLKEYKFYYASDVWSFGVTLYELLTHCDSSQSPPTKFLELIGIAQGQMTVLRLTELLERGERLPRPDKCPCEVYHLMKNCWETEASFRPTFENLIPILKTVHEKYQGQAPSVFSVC
UniProt Q6PHR2: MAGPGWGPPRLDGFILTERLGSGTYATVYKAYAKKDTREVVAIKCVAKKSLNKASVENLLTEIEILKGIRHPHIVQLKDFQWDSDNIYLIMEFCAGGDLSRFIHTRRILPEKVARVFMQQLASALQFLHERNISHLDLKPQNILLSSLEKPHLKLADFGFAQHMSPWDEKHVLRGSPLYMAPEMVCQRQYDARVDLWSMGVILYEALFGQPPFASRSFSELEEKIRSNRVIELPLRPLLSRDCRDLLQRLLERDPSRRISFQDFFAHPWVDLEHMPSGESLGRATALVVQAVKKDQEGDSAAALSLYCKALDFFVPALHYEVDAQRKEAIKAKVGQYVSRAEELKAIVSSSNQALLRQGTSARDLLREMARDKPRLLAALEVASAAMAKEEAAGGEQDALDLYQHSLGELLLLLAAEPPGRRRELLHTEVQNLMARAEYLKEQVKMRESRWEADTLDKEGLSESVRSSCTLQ
UniProt P43403: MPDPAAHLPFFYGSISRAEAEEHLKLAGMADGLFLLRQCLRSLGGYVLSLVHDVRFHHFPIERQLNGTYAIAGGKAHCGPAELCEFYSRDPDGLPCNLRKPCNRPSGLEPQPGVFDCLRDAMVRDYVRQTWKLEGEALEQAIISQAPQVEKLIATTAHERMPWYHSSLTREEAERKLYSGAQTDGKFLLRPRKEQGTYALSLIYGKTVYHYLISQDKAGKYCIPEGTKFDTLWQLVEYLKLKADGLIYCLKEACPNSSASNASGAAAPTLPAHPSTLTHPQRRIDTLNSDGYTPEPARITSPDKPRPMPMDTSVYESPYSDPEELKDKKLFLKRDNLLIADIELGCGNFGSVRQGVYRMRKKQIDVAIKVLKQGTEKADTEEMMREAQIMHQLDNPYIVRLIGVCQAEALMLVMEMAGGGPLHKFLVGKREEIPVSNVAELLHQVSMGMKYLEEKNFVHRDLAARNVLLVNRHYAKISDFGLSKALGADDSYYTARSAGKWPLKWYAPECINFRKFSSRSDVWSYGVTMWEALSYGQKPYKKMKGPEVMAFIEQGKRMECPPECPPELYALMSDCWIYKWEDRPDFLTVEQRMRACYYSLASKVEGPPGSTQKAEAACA
UniProt P31749: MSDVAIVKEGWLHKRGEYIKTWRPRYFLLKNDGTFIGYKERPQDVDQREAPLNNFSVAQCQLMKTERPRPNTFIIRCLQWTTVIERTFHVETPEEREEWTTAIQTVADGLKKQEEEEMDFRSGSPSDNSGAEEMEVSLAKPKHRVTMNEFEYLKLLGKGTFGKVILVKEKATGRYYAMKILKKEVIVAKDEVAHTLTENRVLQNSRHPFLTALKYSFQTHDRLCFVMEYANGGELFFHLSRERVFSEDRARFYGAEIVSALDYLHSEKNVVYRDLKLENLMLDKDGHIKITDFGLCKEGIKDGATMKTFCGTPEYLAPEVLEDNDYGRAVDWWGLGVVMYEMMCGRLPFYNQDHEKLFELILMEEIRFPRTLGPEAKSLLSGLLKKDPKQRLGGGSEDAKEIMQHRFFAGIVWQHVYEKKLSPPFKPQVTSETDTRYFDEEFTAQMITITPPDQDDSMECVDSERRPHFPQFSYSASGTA
UniProt O14965: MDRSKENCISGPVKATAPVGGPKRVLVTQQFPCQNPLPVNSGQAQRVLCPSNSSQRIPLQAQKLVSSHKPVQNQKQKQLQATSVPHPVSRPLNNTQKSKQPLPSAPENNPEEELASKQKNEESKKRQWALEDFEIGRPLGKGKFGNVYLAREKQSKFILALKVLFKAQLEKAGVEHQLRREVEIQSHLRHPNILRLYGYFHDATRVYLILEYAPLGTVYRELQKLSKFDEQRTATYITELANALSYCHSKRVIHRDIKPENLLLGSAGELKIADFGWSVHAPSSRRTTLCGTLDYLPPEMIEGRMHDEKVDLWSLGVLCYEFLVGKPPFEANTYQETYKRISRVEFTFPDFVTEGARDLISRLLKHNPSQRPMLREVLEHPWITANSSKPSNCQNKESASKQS
UniProt Q96GD4, whole entry: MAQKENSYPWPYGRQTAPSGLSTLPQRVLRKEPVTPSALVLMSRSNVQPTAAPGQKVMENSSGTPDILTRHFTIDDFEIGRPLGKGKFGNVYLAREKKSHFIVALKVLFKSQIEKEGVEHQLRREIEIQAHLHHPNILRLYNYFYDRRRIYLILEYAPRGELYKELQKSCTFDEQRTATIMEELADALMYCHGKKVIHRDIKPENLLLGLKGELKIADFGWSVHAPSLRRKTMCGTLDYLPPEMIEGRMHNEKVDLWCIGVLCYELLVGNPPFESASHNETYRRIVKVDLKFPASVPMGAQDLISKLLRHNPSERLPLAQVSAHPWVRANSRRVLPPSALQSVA
UniProt P51451: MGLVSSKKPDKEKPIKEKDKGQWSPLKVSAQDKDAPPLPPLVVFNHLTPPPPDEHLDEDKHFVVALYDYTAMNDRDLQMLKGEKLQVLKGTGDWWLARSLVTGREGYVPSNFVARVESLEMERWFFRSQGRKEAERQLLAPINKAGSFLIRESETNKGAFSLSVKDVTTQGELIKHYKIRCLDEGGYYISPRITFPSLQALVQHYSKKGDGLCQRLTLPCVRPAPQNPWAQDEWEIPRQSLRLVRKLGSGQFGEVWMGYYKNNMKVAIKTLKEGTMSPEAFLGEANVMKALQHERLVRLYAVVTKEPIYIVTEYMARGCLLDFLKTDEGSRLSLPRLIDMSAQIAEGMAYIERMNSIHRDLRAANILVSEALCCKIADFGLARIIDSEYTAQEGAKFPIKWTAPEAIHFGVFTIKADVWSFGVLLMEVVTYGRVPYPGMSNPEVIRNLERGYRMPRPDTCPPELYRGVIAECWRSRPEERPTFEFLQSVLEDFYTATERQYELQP
UniProt P51813: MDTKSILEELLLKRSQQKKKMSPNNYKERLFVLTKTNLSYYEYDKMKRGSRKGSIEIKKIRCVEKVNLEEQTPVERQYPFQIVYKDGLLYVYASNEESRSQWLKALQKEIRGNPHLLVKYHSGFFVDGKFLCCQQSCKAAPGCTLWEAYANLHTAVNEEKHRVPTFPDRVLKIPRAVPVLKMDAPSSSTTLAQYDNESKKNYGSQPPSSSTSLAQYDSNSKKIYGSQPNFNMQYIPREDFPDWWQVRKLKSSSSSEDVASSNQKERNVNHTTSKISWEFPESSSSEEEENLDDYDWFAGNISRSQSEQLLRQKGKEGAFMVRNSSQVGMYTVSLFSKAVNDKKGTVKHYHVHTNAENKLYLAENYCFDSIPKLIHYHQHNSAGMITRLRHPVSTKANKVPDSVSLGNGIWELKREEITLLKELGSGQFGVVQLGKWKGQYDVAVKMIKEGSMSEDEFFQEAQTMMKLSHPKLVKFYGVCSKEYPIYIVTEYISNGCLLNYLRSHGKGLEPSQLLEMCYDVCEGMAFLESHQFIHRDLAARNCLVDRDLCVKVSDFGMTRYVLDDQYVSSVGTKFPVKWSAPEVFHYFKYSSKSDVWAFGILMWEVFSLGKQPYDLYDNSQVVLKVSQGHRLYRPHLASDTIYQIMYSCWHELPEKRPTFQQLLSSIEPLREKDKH
UniProt P15056, whole entry, looked up: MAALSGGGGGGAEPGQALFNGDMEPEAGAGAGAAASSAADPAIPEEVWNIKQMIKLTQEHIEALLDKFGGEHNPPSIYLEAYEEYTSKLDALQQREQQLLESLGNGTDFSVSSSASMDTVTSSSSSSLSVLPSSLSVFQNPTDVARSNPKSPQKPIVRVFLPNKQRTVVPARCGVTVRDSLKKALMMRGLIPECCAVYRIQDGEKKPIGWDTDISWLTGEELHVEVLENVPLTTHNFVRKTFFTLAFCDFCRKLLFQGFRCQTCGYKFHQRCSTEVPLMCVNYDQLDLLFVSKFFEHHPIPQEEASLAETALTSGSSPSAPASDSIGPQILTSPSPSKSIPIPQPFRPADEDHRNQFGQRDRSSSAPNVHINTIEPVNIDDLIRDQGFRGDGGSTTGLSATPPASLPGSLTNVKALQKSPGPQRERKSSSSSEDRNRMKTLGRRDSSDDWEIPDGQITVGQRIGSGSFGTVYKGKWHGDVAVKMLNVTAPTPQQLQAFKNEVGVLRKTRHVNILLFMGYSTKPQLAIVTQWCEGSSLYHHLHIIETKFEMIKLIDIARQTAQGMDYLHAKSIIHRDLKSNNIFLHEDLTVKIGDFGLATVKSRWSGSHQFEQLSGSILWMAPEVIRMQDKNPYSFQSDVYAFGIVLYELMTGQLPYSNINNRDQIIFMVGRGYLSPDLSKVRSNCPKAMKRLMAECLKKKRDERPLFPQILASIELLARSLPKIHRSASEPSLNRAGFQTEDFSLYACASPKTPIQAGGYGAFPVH
UniProt Q06187: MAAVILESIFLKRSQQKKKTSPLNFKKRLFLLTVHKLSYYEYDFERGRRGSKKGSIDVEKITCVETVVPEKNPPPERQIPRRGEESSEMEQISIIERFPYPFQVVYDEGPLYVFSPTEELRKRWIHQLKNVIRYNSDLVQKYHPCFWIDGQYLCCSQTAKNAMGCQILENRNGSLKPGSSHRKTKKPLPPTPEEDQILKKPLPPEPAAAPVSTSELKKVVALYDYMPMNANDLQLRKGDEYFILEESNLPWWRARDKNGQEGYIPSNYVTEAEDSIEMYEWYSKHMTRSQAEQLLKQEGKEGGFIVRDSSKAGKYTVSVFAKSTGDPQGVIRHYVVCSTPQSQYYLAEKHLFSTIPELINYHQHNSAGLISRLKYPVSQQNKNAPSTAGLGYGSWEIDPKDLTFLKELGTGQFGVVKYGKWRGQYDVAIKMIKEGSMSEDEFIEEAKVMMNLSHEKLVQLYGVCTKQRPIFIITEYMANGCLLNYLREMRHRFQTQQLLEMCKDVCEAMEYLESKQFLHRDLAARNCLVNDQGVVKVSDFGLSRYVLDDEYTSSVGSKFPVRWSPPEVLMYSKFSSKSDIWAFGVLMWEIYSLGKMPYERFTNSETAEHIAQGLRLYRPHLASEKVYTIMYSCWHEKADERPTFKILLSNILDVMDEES

What was measured:
Details in all cases: K562; 2-18 h
[1] = target: STK38 (UniProt Q15208); test: kinase-Nluc reporter destabilization hit call (1 = scored as downregulated) (binary); higher = compound decreases kinase abundance
[2] = target: SYK (UniProt P43405); test: as above
[3] = target: TEC (UniProt P42680); test: as above
[4] = target: TYK2 (UniProt P29597); test: as above
[5] = target: ULK3 (UniProt Q6PHR2); test: as above
[6] = target: YES1 (UniProt P07947); test: as above
[7] = target: ZAK (UniProt Q9NYL2); test: as above
[8] = target: ZAP70 (UniProt P43403); test: as above
[9] = target: ABL1 (UniProt P00519); test: number of time points (of 5) at which kinase-Nluc abundance scored as decreased, DMSO-normalised (count); higher = more persistent destabilization
[10] = target: AKT1 (UniProt P31749); test: as above
[11] = target: ALK (UniProt Q9UM73); test: as above
[12] = target: ARAF (UniProt P10398); test: as above
[13] = target: AURKA (UniProt O14965); test: as above
[14] = target: AURKB (UniProt Q96GD4); test: as above
[15] = target: AURKC (UniProt Q9UQB9); test: as above
[16] = target: BLK (UniProt P51451); test: as above
[17] = target: BMX (UniProt P51813); test: as above
[18] = target: BRAF (UniProt P15056); test: as above
[19] = system: BRAF_V600E; test: as above
[20] = target: BTK (UniProt Q06187); test: as above

SMILES	kinase-Nluc reporter destabilization hit call [1]	kinase-Nluc reporter destabilization hit call [2]	kinase-Nluc reporter destabilization hit call [3]	kinase-Nluc reporter destabilization hit call [4]	kinase-Nluc reporter destabilization hit call [5]	kinase-Nluc reporter destabilization hit call [6]	kinase-Nluc reporter destabilization hit call [7]	kinase-Nluc reporter destabilization hit call [8]	number of time points [9]	number of time points [10]	number of time points [11]	number of time points [12]	number of time points [13]	number of time points [14]	number of time points [15]	number of time points [16]	number of time points [17]	number of time points [18]	number of time points [19]	number of time points [20]
OC[C@H]1O[C@@H](Oc2cc3c(O)cc(O)cc3[o+]c2-c2cc(O)c(O)c(O)c2)[C@H](O)[C@@H](O)[C@@H]1O [Delphinidin 3-glucoside (chloride)] (10 µM)	inactive: 0	inactive: 0	inactive: 0	inactive: 0	inactive: 0	inactive: 0	inactive: 0	inactive: 0	0	0	0	0	0	0	0	0	0	0	0	0
Cc1cc(O)c(C(C)C)cc1N=O [Poloxime] (10 µM)	inactive: 0	inactive: 0	inactive: 0	inactive: 0	inactive: 0	inactive: 0	inactive: 0	inactive: 0	0	0	0	0	0	0	0	0	0	0	0	0
CC(C)(NS(=O)(=O)c1ccc2c(Cl)cnc(N=C(N)N)c2c1)C(=O)O (10 µM)	inactive: 0	inactive: 0	inactive: 0	inactive: 0	inactive: 0	inactive: 0	inactive: 0	inactive: 0	0	0	0	0	0	0	0	0	0	0	0	0
O=C(/C=C/c1ccc(O[C@@H]2O[C@H](CO)[C@@H](O)[C@H](O)[C@H]2O[C@@H]2OC[C@](O)(CO)[C@H]2O)cc1)c1ccc(O)cc1O [Isoliquiritin apioside] (10 µM)	inactive: 0	inactive: 0	inactive: 0	inactive: 0	inactive: 0	inactive: 0	inactive: 0	inactive: 0	0	0	0	0	0	0	0	0	0	0	0	0
c1cn2cc(-c3ccc4cn[nH]c4c3)nc(Nc3ccc(N4CCOCC4)cc3)c2n1 [Entospletinib] (10 µM)	inactive: 0	inactive: 0	inactive: 0	inactive: 0	inactive: 0	inactive: 0	inactive: 0	inactive: 0	0	0	0	0	0	0	0	0	0	0	0	0
COc1cc2ncn(-c3cc(OCc4ccccc4S(C)(=O)=O)c(C#N)s3)c2cc1OC (10 µM)	inactive: 0	inactive: 0	inactive: 0	inactive: 0	inactive: 0	inactive: 0	inactive: 0	inactive: 0	0	0	0	0	0	0	0	0	0	0	0	0
O=C(/C=C/c1ccc(O)c(O)c1)OC1CC(OC(=O)/C=C/c2ccc(O)c(O)c2)(C(=O)O)CC(O)C1O (stereo not given) [1,3-Dicaffeoylquinic acid] (10 µM)	inactive: 0	inactive: 0	inactive: 0	inactive: 0	inactive: 0	inactive: 0	inactive: 0	inactive: 0	0	0	0	0	0	0	0	0	0	0	0	0
COc1cc(F)c(F)c(Nc2ccc(I)cc2F)c1NS(=O)(=O)C1(C[C@H](O)CO)CC1 [Refametinib] (10 µM)	inactive: 0	inactive: 0	inactive: 0	inactive: 0	inactive: 0	inactive: 0	inactive: 0	inactive: 0	1	0	0	0	1	0	0	1	1	0	3	0
C=C1C(=O)O[C@@H]2C[C@@]3(C)CCC[C@H](C)C3=C[C@H]12 [Alantolactone] (10 µM)	inactive: 0	inactive: 0	inactive: 0	inactive: 0	inactive: 0	inactive: 0	inactive: 0	inactive: 0	0	0	0	0	0	0	0	0	0	0	0	0
O=c1oc2cc(O)ccc2c2ccccc12 [Urolithin B] (10 µM)	inactive: 0	inactive: 0	inactive: 0	inactive: 0	inactive: 0	inactive: 0	inactive: 0	inactive: 0	0	0	0	0	0	0	0	0	0	0	0	0
CC(C)c1cnc(-c2cc(Cl)ccc2F)cc1Nc1ccncc1C(=O)NC(CO)CO (2.5 µM)	inactive: 0	inactive: 0	inactive: 0	inactive: 0	inactive: 0	inactive: 0	inactive: 0	inactive: 0	0	0	0	0	0	0	0	0	0	0	0	0
